According to article PMC13615978:
Results are given in words; binding and its absence hold for the method and conditions named. Some results given as binding are weak or reduced against the parent protein; the word gives no strength. Where a sequence is shown, tags or fusion partners need not be part of it.

Columns and labels:
[1] = molecular target: Ent5 full-length tagged with mEGFP (Ent5-mEGFP) (S. cerevisiae) (UniProt Q03769); assay: mass photometry; Ent5-mEGFP alone, 1 µM stock, 1-2 µL added to 18 µL buffer, room temperature; low salt (5 mM NaCl); self-association into species >200 kDa beside the monomer; both purified
[2] = molecular target: Ent5 Δ249-287-mEGFP (S. cerevisiae) (UniProt Q03769); assay: as above

binding [1] | binding [2] | Binder
binds weakly | – | Ent5 full-length tagged with mEGFP (Ent5-mEGFP) (protein, UniProt Q03769 1-411) MDSLSKKIQNLGIHDIRNAARFAQNVIVQYEPYQIDIRRATNTDAWGPTPKHLAKVLRNRYQVPLYLMTEYTLKRLVDHIATRPKNLYEKARKDYVNYGSEWRVVLKCLVVIEFLLLNVDTGDELNQIRSCLLTHKHILTREIAQFKVKFSNDGKMEIHERGIRKKGELILQYLEDSQFLKKERAKNKKNALKIRQQGESSIYNANQISTSASYDNIDDDEFDADADGFDSEMDANNVTNFNVPVETEANSNTRRRSHMEEQRRQRREILREQIKNKEQQRKRKQQQDSIPDLIDLDDSTSTTNNITIDNGNNDNKNNNINSNSDDDDDEFGDFQSETSPDTTAPKTSNSKIDDLLDWDGPKSDTDTTAAAQTSLPFAEKKQQKARPQATKDKSKGNDAFSDLFSYSKSLV
– | binds weakly | Ent5 Δ249-287-mEGFP (protein, UniProt Q03769) MDSLSKKIQNLGIHDIRNAARFAQNVIVQYEPYQIDIRRATNTDAWGPTPKHLAKVLRNRYQVPLYLMTEYTLKRLVDHIATRPKNLYEKARKDYVNYGSEWRVVLKCLVVIEFLLLNVDTGDELNQIRSCLLTHKHILTREIAQFKVKFSNDGKMEIHERGIRKKGELILQYLEDSQFLKKERAKNKKNALKIRQQGESSIYNANQISTSASYDNIDDDEFDADADGFDSEMDANNVTNFNVPVETEDSIPDLIDLDDSTSTTNNITIDNGNNDNKNNNINSNSDDDDDEFGDFQSETSPDTTAPKTSNSKIDDLLDWDGPKSDTDTTAAAQTSLPFAEKKQQKARPQATKDKSKGNDAFSDLFSYSKSLV
